Reference: paper PMC7819943, “Rice protein-binding microarrays: a tool to detect cis-acting elements near promoter regions in rice”
The list shows a part of the results.

target: T1, OsSMF1 (Oryza sativa, UniProt Q6ZLB0 1-436); test: protein-binding microarray (RPBM); PBS, 2% BSA, 51.3 ng/ul salmon testes DNA, 50 uM zinc acetate, 200 nM TF, 25 C, 1 h; high values mean tight binding; conditions: protein: recombinant; tags: N-terminal polyhistidine and DsRed monomer fusion (pET32a); chain copies: 2; label: CyDye5-dUTP incorporated in the synthesized complementary strand; 3' TTTTT single-stranded linker to array surface; dsDNA, one strand shown
T1 sequence: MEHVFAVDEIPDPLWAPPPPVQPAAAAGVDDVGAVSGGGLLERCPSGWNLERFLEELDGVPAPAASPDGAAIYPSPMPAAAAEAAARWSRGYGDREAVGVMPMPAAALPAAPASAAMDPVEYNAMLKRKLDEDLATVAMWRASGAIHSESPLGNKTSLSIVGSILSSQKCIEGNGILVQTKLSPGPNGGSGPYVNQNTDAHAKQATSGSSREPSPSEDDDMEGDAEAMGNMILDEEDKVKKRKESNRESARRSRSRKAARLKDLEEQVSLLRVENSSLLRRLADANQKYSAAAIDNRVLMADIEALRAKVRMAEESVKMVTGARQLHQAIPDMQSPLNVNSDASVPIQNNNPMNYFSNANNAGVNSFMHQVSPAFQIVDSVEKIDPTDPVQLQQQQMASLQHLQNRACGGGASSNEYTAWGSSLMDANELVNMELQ
Method in brief: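 In PBS with 2% BSA, salmon testes DNA and 50 µM zinc acetate, 200 nM protein was incubated on a custom Agilent array at 25 °C for 1 h and then washed off. The array had been made double-stranded by primer extension with Cy5-dUTP and blocked with 2% BSA. The proteins were transcription factors fused N-terminally to polyhistidine and DsRed, expressed in E. coli BL21-CodonPlus and purified on Ni–NTA. The binding signal is per-feature fluorescence intensity (arbitrary units) from an Axon 4000B scanner.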

Sequence	binding signal
GGTCTGACTCCACAATGCTAAATGCGTTGTACTGTAGCAGCGGAGTCACCTAGTGCAG	3220 fluorescence intensity (a.u.)
GGCTAGCCAGCGACCGACCGGCGGCCACCGTGGCGGGATTCGGAGTCACCTAGTGCAG	4850 fluorescence intensity (a.u.)
ATGTGCACAATGCACAGTGCACGTGTGTTTTCTGTGTAACCGGAGTCACCTAGTGCAG	4540 fluorescence intensity (a.u.)
AATTTGCTAGTCCCCACAAGTACGTGGCACTCTGCCATGTCGGAGTCACCTAGTGCAG	13900 fluorescence intensity (a.u.)
CTCCAGGTCATCGATCCAGGTGTCATTTTCAATGCCTTCACGGAGTCACCTAGTGCAG	4190 fluorescence intensity (a.u.)
CGTTTGGCCGCCAAGTCCTCATTCAGTCCAGGTCAGGGCGCGGAGTCACCTAGTGCAG	4760 fluorescence intensity (a.u.)
ACCACAGGGGCTTCTCCCTCGGCGCCGCCTGCTCCGGCGACGGAGTCACCTAGTGCAG	23500 fluorescence intensity (a.u.)
AGTTGAGGGACCTTGCGTGTACTTTTCCCTTTATTTTCTCCGGAGTCACCTAGTGCAG	4210 fluorescence intensity (a.u.)
GCTCAACGCCCTTCCTCACTCGCTTCGCACGTGCCTCCCTCGGAGTCACCTAGTGCAG	3290 fluorescence intensity (a.u.)
TAACCAATCCAACTATTCTGGGCAGCCAAATTGACTCAGACGGAGTCACCTAGTGCAG	5030 fluorescence intensity (a.u.)
GTTTATTTCATGTGTAGGTGACTCGATGCCTCGGGAGAGTCGGAGTCACCTAGTGCAG	3700 fluorescence intensity (a.u.)
CCACCTCGGTACGTGTTCGACATGTTGCGCATATTTGATCCGGAGTCACCTAGTGCAG	4750 fluorescence intensity (a.u.)
TAAGAGATTATTCGTGTGATGACGTATGAAGCAAGCGCAACGGAGTCACCTAGTGCAG	8790 fluorescence intensity (a.u.)
CGAACCGGCCGGAGACATCCTCACCGATGACGATGACGATCGGAGTCACCTAGTGCAG	3840 fluorescence intensity (a.u.)
CATGTGGACGTTCACCCGAGTATTTAAAACAGTTTCCGTGCGGAGTCACCTAGTGCAG	7860 fluorescence intensity (a.u.)
GTGGTGGGTATGTTGGCGTTATGATTCGATGCCCCTGAACCGGAGTCACCTAGTGCAG	3870 fluorescence intensity (a.u.)
CCGCACACTCCCGTCACGTTGCGGTACGGACACCCACACACGGAGTCACCTAGTGCAG	4580 fluorescence intensity (a.u.)
CGAGCCGAACTTCCCTGACGCCGAAGTAGAGCGGCTCGCCCGGAGTCACCTAGTGCAG	3460 fluorescence intensity (a.u.)
CGAGCTTGGTACGATTGGCGAGCAAGGCCATGCATGTCCACGGAGTCACCTAGTGCAG	3520 fluorescence intensity (a.u.)
CGGTGCACACCACCGGCGCTTCGTGTGCTACGCCACCACGCGGAGTCACCTAGTGCAG	24800 fluorescence intensity (a.u.)
AGGAGTCAAAGTAACACATCATTGTAAGCGGCAAGTACTTCGGAGTCACCTAGTGCAG	4070 fluorescence intensity (a.u.)

Sequence	binding signal
AGTGGGTGAGGGTTGTAGAGGAAGGCATGCGAAGGAAAATCGGAGTCACCTAGTGCAG	3210 fluorescence intensity (a.u.)
TTTCACCCGGGACTAAAGATCGCTATCTTTAGTCCCGGATCGGAGTCACCTAGTGCAG	52600 fluorescence intensity (a.u.)
TCTCCTTATAGCCCTCTAGGATGACGTTAAGGGGTTGCCTCGGAGTCACCTAGTGCAG	3490 fluorescence intensity (a.u.)
CTTTGTACAAGTACGTACACGTATGATCAACGACAGTTTCCGGAGTCACCTAGTGCAG	7980 fluorescence intensity (a.u.)
GGGCTTGCCCTCCATGAGCACCTCACGGCTGACGGAGGCGCGGAGTCACCTAGTGCAG	3440 fluorescence intensity (a.u.)
TTGGACGATGACAACCTAGCGCGACGTGGCAGCGCGCCACCGGAGTCACCTAGTGCAG	11300 fluorescence intensity (a.u.)
GCAACTGACGACTGCGACTGCCTCCTCTTCTTCTTCTTCGCGGAGTCACCTAGTGCAG	3610 fluorescence intensity (a.u.)
GTGACAGTCCATTGTATTCACACGTGGTCCACTGTATTCACGGAGTCACCTAGTGCAG	5200 fluorescence intensity (a.u.)
GGATCTCCGCATGCGCCACGTCCGCGGCGGGATCTAGCGGCGGAGTCACCTAGTGCAG	8200 fluorescence intensity (a.u.)
GTCATCATGTGCGCACTAATCTCTGAGTCAGTGACAAATTCGGAGTCACCTAGTGCAG	6820 fluorescence intensity (a.u.)
CCTAATTTGCGTGATTGGATTGGTTGGTTGTGTTGTAATGCGGAGTCACCTAGTGCAG	29800 fluorescence intensity (a.u.)
GTGAGGTAATCCCACATCATCCTCCCGCGGATTTACCATTCGGAGTCACCTAGTGCAG	5770 fluorescence intensity (a.u.)
GAAGAACATGGCGAGCACCTGACTAAACACTGCAAGCGAGCGGAGTCACCTAGTGCAG	4390 fluorescence intensity (a.u.)
TTGTAGTACTCCTCACCACGTCGTCGACTCGATCGTACCTCGGAGTCACCTAGTGCAG	4110 fluorescence intensity (a.u.)
TAATAGTAAGCTATAAACTGGCTAAATGCTGAGGTGGAGGCGGAGTCACCTAGTGCAG	4200 fluorescence intensity (a.u.)
AGATTTAGCCACATCACCTCGATAACGTGGCCAAATTATACGGAGTCACCTAGTGCAG	4450 fluorescence intensity (a.u.)
AGTGGAAAATTTTGAATAAGGCAATTGAAATTAGAAGGTGCGGAGTCACCTAGTGCAG	26800 fluorescence intensity (a.u.)
GAATGATGACTGGACTGCCACACGTACACCACGTAGACCACGGAGTCACCTAGTGCAG	9760 fluorescence intensity (a.u.)
TAAATGCTTTGCTACTCTGAGCTGCTGGTGCTGCGGATGACGGAGTCACCTAGTGCAG	3160 fluorescence intensity (a.u.)
GGTTGGAGCCGATGTGGACGTCATCGAGCTGCTCGCATCCCGGAGTCACCTAGTGCAG	6430 fluorescence intensity (a.u.)
AGATGTCGCCGGTGAAGTGGTTCTCTTCCAGCCGGACCCGCGGAGTCACCTAGTGCAG	3330 fluorescence intensity (a.u.)

A second format for some results above.
Sequence | binding signal
AGTTGAGGGACCTTGCGTGTACTTTTCCCTTTATTTTCTCCGGAGTCACCTAGTGCAG | 4210 fluorescence intensity (a.u.)
GTGAGGTAATCCCACATCATCCTCCCGCGGATTTACCATTCGGAGTCACCTAGTGCAG | 5770 fluorescence intensity (a.u.)
